Article PMC9197078, “The small nonstructural protein NP1 of human bocavirus 1 directly interacts with Ku70 and RPA70 and facilitates viral DNA replication” (PLoS Pathogens, 2022)

The chains behind the UniProt entries cited, without tags or fusion partners.
UniProt P12956: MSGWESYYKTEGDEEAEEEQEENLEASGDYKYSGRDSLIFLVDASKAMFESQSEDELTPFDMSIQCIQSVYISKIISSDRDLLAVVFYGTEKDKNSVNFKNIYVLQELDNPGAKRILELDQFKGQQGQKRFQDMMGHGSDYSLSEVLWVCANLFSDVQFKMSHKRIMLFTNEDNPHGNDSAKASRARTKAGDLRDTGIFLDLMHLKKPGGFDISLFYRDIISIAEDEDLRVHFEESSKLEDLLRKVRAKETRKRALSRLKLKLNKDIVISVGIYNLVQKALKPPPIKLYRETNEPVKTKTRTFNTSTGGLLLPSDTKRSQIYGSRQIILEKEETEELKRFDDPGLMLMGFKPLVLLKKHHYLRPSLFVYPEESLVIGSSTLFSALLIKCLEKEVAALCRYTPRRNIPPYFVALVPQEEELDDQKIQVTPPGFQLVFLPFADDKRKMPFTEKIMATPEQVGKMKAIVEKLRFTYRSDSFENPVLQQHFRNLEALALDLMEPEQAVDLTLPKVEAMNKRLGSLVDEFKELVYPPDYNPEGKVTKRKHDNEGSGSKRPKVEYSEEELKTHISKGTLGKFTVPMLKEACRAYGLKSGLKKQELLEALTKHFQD
UniProt O43143: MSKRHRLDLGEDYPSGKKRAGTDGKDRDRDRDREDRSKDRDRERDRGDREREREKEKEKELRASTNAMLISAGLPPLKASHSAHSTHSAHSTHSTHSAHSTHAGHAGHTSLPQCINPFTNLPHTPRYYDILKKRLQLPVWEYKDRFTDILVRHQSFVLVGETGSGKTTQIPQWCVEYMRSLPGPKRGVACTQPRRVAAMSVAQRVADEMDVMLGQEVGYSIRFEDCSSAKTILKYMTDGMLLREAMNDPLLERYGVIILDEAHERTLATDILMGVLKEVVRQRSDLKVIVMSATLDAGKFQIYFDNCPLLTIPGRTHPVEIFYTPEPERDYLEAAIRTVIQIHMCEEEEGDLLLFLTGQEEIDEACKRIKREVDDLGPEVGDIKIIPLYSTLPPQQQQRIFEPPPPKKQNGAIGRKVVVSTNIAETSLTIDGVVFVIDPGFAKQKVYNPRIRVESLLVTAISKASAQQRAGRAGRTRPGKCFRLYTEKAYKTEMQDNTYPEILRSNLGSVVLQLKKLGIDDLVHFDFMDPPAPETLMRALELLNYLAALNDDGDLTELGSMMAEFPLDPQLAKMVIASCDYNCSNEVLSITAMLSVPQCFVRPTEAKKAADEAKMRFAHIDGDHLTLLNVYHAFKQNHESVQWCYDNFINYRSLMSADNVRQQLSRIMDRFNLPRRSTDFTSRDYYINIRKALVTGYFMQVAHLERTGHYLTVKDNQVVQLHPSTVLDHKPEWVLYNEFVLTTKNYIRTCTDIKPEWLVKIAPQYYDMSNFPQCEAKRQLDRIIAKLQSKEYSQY
UniProt P27694: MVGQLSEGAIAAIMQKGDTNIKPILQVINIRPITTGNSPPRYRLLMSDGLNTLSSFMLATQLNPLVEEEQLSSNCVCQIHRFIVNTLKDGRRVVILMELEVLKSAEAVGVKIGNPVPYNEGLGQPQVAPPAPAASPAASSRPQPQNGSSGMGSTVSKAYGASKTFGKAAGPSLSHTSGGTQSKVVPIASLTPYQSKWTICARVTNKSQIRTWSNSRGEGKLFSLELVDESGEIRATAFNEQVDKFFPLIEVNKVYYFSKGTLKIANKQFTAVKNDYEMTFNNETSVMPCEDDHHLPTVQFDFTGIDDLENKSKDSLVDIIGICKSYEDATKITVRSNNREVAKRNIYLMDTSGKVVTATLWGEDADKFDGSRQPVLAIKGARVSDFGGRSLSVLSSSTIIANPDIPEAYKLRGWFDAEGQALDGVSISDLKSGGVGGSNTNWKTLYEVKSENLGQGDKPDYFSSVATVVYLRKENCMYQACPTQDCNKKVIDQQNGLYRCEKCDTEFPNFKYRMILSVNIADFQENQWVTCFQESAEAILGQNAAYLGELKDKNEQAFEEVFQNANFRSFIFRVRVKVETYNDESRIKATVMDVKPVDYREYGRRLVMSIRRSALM
UniProt P67809: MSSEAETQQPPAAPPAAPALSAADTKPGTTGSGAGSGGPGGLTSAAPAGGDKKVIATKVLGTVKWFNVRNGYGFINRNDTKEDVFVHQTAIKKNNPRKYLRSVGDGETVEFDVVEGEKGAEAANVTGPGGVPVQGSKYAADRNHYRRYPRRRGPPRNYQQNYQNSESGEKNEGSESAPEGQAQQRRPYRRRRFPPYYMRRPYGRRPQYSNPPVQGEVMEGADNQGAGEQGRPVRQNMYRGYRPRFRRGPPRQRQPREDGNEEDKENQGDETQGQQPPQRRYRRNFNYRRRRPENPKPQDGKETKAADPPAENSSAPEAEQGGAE

B1: DExH-box helicase 30 (DHX30/DDX30) (protein, UniProt Q7L2E3 1-1194)
chain: MFSLDSFRKDRAQHRQRQCKLPPPRLPPMCVNPTPGGTISRASRDLLKEFPQPKNLLNSVIGRALGISHAKDKLVYVHTNGPKKKKVTLHIKWPKSVEVEGYGSKKIDAERQAAAAACQLFKGWGLLGPRNELFDAAKYRVLADRFGSPADSWWRPEPTMPPTSWRQLNPESIRPGGPGGLSRSLGREEEEDEEEELEEGTIDVTDFLSMTQQDSHAPLRDSRGSSFEMTDDDSAIRALTQFPLPKNLLAKVIQIATSSSTAKNLMQFHTVGTKTKLSTLTLLWPCPMTFVAKGRRKAEAENKAAALACKKLKSLGLVDRNNEPLTHAMYNLASLRELGETQRRPCTIQVPEPILRKIETFLNHYPVESSWIAPELRLQSDDILPLGKDSGPLSDPITGKPYVPLLEAEEVRLSQSLLELWRRRGPVWQEAPQLPVDPHRDTILNAIEQHPVVVISGDTGCGKTTRIPQLLLERYVTEGRGARCNVIITQPRRISAVSVAQRVSHELGPSLRRNVGFQVRLESKPPSRGGALLFCTVGILLRKLQSNPSLEGVSHVIVDEVHERDVNTDFLLILLKGLQRLNPALRLVLMSATGDNERFSRYFGGCPVIKVPGFMYPVKEHYLEDILAKLGKHQYLHRHRHHESEDECALDLDLVTDLVLHIDARGEPGGILCFLPGWQEIKGVQQRLQEALGMHESKYLILPVHSNIPMMDQKAIFQQPPVGVRKIVLATNIAETSITINDIVHVVDSGLHKEERYDLKTKVSCLETVWVSRANVIQRRGRAGRCQSGFAYHLFPRSRLEKMVPFQVPEILRTPLENLVLQAKIHMPEKTAVEFLSKAVDSPNIKAVDEAVILLQEIGVLDQREYLTTLGQRLAHISTDPRLAKAIVLAAIFRCLHPLLVVVSCLTRDPFSSSLQNRAEVDKVKALLSHDSGSDHLAFVRAVAGWEEVLRWQDRSSRENYLEENLLYAPSLRFIHGLIKQFSENIYEAFLVGKPSDCTLASAQCNEYSEEEELVKGVLMAGLYPNLIQVRQGKVTRQGKFKPNSVTYRTKSGNILLHKSTINREATRLRSRWLTYFMAVKSNGSVFVRDSSQVHPLAVLLLTDGDVHIRDDGRRATISLSDSDLLRLEGDSRTVRLLKELRRALGRMVERSLRSELAALPPSVQEEHGQLLALLAELLRGPCGSFDVRKTADD

What follows are molecules tested against T1, Flag-tagged HBoV1 NP1 (NP1^Flag) (human bocavirus 1 (HBoV1)) (UniProt Q3YPH5) (assay: affinity purification with mass spectrometry; HEK293 co-transfected with pIHBoV1^ΔNP1 and pCI-NP1^Flag; lysate (50 mM Tris pH7.5, 150 mM NaCl, 0.5% NP-40, 1 mM EDTA, 10% glycerol) with anti-Flag or control IgG and protein G beads, 4°C; unique gel bands and sections to MS; no nuclease).
T1 sequence: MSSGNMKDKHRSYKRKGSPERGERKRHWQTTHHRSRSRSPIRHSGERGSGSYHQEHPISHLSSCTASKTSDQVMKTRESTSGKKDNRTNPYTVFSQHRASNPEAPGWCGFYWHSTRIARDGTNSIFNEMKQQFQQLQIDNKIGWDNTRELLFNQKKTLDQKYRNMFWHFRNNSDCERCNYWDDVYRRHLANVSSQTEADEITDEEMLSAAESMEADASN
With “ATP-dependent DNA helicase II 70 KDa (Ku70) (endogenous) (from UniProt P12956 1-609)” the binding was “binds”.
In the case of DHX15/DDX15 (from UniProt O43143 1-795), the binding is reported as “binds”.
In the case of “RPA70 (endogenous) (from UniProt P27694 1-616)”, the binding is reported as “binds”.
“Y-box binding protein 1 (YBX1) (from UniProt P67809 1-324)” was tested, and the binding was “binds”.
With B1 the binding was “binds”.

No constants are given. Whether binding was seen depends on the method and setting. Binding seen in cells or lysates may run through a third protein. These calls come from enrichment with a bait or labelling near it, and not all partners need be listed. Tags and fused reporters may be left off the sequences shown.
